According to patent publication US20050227272A1:
No constants are given. Whether binding was seen depends on the method and setting. In cells and extracts the contact can be indirect. Binding can be weak; no strength is given. Sequences can lack the tags named with a protein.

Key:
Experiment in all cases: anti-His pull-down of His-SUMO4 complexes, 2D PAGE, MALDI-TOF/TOF
[1] = biological target: Kunitz-type protease inhibitor
[2] = biological target: Mitochondrial Creatine Kinase
[3] = biological target: Pro2675
[4] = biological target: Pyruvate kinase
[5] = biological target: TPMsk3
[6] = biological target: Trp26
[7] = biological target: WD-repeat protein
[8] = biological target: acyl-Coenzyme A dehydrogenase
[9] = biological target: anti-colorectal carcinoma heavy chain
[10] = biological target: carbonate hydrolyase
[11] = biological target: eukaryotic translation initiation factor 3
[12] = biological target: moesin/anaplastic lymphoma kinase fusion protein
[13] = biological target: phosphoribosyl pyrophosphate synthetase
[14] = biological target: platelet-activating factor acetylhydrolase, isoform Ib
[15] = biological target: similar to Esterase D
[16] = biological target: thioredoxin-like protein

binding [1]: binds | binding [2]: binds | binding [3]: binds | binding [4]: binds | binding [5]: binds | binding [6]: binds | binding [7]: binds | binding [8]: binds | binding [9]: binds | binding [10]: binds | binding [11]: binds | binding [12]: binds | binding [13]: binds | binding [14]: binds | binding [15]: binds | binding [16]: binds
B1: His-tagged SUMO4 expressed in HEK293 cells from pcDNA3.1 (protein, not shown: small tags and cut ends)
chain: MANEKPTEEVKTENNNHINLKVAGQDGSVVQFKIKRQTPLSKLMKAYCEPRGLSMKQIRFRFGGQPISGTDKPAQLEMEDEDTIDVFQQPTGGVY
